PubChem BioAssay AID504784 | Drosophila RNAi Screening Center | 2011
Aim: 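Genome-wide knock-down for genes giving too much or too little stored lipid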 (primary screen). Cells: Drosophila Kc167 embryonic cells. Reagents: long dsRNA against Drosophila genes, about 250 ng dsRNA per well. Timing: 4 days. Conditions: cells fed 400 µM oleic acid bound to BSA. Read-out: 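Microscope images give a droplet-to-nucleus area ratio, taken as log and converted to a screen-wide B-score; higher values mean greater lipid storage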. Scale: droplet/nuclear area B-score: higher = more stored lipid (overstorage).
The deposit covers about 17,000 reagents; below is an unselected part of those with a known target gene and a result. 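Each column is one replicate's B-score; the combined score over replicates was not deposited, so single values may mislead.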 The numbers tell different reagents against one gene apart. A plus sign joins genes that one reagent is predicted to hit.

target,dsRNA no.,"droplet/nuclear area B-score, replicate 1","droplet/nuclear area B-score, replicate 2","droplet/nuclear area B-score, replicate 3"
CG6674,1,1.06,-1.78,
brat (brain tumor),1,0.164,0.313,
CG14478,1,-0.0726,-0.121,
Sec71 (Secretory 71),1,-2.16,-0.147,
CG14564,1,-0.434,-1.83,
CG14564,2,-0.131,1.16,
CG8303,1,-0.415,-3.17,
CG40005 (retired record) + cta,1,3,1.48,
Rlip (Ral interacting protein),1,-0.314,0.947,
CG13670,1,-1.81,0.134,
CG4660,1,1.83,0.119,
CG8117,1,-2.82,3.2,
Gbeta13F (G protein beta subunit 13F),1,-0.633,-1.02,-0.758
maca,1,2.16,4.21,
CG33306,1,-0.0555,0.183,
"ash1 (absent, small, or homeotic discs 1)",1,0.00166,-2.15,-0.0195
Sh (Shaker),1,-4.55,-2.85,
Sh (Shaker),2,-0.391,-0.12,
Sh (Shaker),3,0.255,0.515,
Sh (Shaker),4,0.976,-0.255,
Sh (Shaker),5,0.346,-1.18,
CG8229 + CG33199,1,4.41,1.14,
CG5515,1,-0.871,-3.45,
CG17027,1,-1.15,0.416,0.15
Dmtn (Dementin),1,-0.162,-2.22,
ken (ken and barbie),1,4.64,-0.106,
ken (ken and barbie),2,-0.105,-0.221,
lqf (liquid facets),1,0.326,1.62,
AkhR (Adipokinetic hormone receptor),1,-1.72,,
CG30275,1,0.237,-0.96,
CG32085,1,-0.415,0.0108,
CG32085,2,-0.711,-1.68,
CG32085,3,-0.0151,1.28,
B4,1,-0.105,0.32,
B4,2,0.294,0.136,
GPHR (Golgi pH Regulator),1,-0.251,0.313,
CG44001 + CG33995,1,0.256,0.384,
CG44001 + CG33995,2,-2.42,-0.651,
Esp (Epidermal stripes and patches),1,0.563,-0.31,
l(3)S110416 (retired record),1,-0.155,-3.2,
CG1494,1,0.517,-0.26,
Lgr3 (Leucine-rich repeat-containing G protein-coupled receptor 3),1,-0.114,-0.289,
Lgr3 (Leucine-rich repeat-containing G protein-coupled receptor 3),2,-0.304,-0.506,
CG1773,1,-1.24,0.584,
MFS18 (Major Facilitator Superfamily Transporter 18),1,-0.772,1.12,
Optix,1,1.07,0.756,
Optix,2,-0.99,0.822,
Optix,3,4.59,-1.08,
Sting,1,-0.0425,-0.263,
Sec20 (Secretory 20),1,-0.306,-0.431,
CG42827 + CG42828,1,1.28,1.41,-0.679
Sems (Seminase),1,-0.601,-3.14,
Uch (Ubiquitin carboxy-terminal hydrolase),1,0.316,0.604,
CG17260,1,0.0261,-0.335,
achi (achintya),1,0.0309,-0.673,
CG9641,1,0.0787,-0.0714,
FIG4 (FIG4 phosphoinositide 5-phosphatase),1,0.106,-0.38,
CG13185,1,-0.663,-0.4,
CG9522,1,2.09,0.579,
Mtr3,1,-1.2,-1.21,
CG15445,1,1.22,0.827,
Or83a (Odorant receptor 83a),1,0.738,-1.55,
Or65b (Odorant receptor 65b),1,2.57,0.0549,
Or98P (Odorant receptor 98a pseudogene),1,1.04,-0.312,
Dora (Dorado),1,1.23,2.06,
Dora (Dorado),2,0.459,-0.623,
Dora (Dorado),3,-0.931,-0.756,
Dora (Dorado),4,-0.0604,-1.19,
step (steppke),1,-1.67,-2.37,
step (steppke),2,0.0514,0.868,
CG31807,1,2.02,0.863,
CG6700,1,-2.06,-1.6,
Pdk (Pyruvate dehydrogenase kinase),1,-0.198,1.15,
BobA,1,-2.37,-1.48,
ABCB7 (ATP binding cassette subfamily B member 7),1,0.542,1.94,
Glo1 (Glyoxalase 1),1,0.147,0.448,
CG31161,1,0.0611,-1.79,
arm (armadillo),1,0.0131,-0.681,
Cht6 (Chitinase 6),1,-1.45,-1.26,0.641
Cht6 (Chitinase 6),2,0.906,0.79,1.73
Cht6 (Chitinase 6),3,0.701,0.712,-0.178
Cht6 (Chitinase 6),4,-1.13,-1.38,
CG13428,1,-1.84,0.666,
